PubChem BioAssay AID1259425, University of Nebraska Medical Center, 2018
Test: 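Find knockdowns that reproduce the gene expression pattern seen when KSR1 is lost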 (primary screen). Cells: HCT116 human colon cancer cells. Reagent: siRNA pool against human genes, 50 nM siRNA. Detection: 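After 50 nM siRNA pool, branched-DNA assay measures six marker transcripts per well, minus blank, normalised to the geometric mean of two housekeeping transcripts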. Scale: BNIP3L mRNA: higher = more BNIP3L transcript after knockdown; NDRG1 mRNA: higher = more NDRG1 transcript after knockdown; BNIP3 mRNA: higher = more BNIP3 transcript after knockdown.
The deposit covers about 14,000 reagents; below is an unselected part. Not all columns of the deposit are shown. Not stated in the record: the time to read-out.

gene	BNIP3L mRNA, set 1	NDRG1 mRNA, set 1	BNIP3 mRNA, set 1
ARSA (GeneID 410)	0.157	0.399	0.363
MICU1 (GeneID 10367)	0.152	0.946	0.428
IP6K2 (GeneID 51447)	0.162	0.149	0.785
ENTPD6 (GeneID 955)	0.0472	0.0684	0.227
MED13 (GeneID 9969)	0.0998	0.156	0.257
ERAL1 (GeneID 26284)	0.0935	0.186	0.277
MS4A4A (GeneID 51338)	0.135	0.194	0.253
YEATS2 (GeneID 55689)	0.192	0.305	0.274
EZH1 (GeneID 2145)	0.32	0.182	0.78
C8B (GeneID 732)	0.18	0.35	0.238
SLC9D1 (GeneID 55002)	0.131	0.314	0.307
EGR3 (GeneID 1960)	0.0855	0.0438	0.366
ZBTB10 (GeneID 65986)	0.116	0.44	0.314
OPTN (GeneID 10133)	0.106	0.219	0.267
SLAIN2 (GeneID 57606)	0.0633	0.147	0.335
DEF8 (GeneID 54849)	0.128	1.63	0.338
EMILIN1 (GeneID 11117)	0.262	0.178	0.313
CHST10 (GeneID 9486)	0.134	0.198	0.339
ALDH18A1 (GeneID 5832)	0.0575	0.0639	0.193
GSKIP (GeneID 51527)	0.206	0.545	0.705

Copied from the list.
EMILIN1 (GeneID 11117), BNIP3 mRNA, set 1: 0.313
For “BNIP3 mRNA, set 1”, SLC9D1 (GeneID 55002) is entered as 0.307
